Data taken from patent US20040235104A1.

Target: FGF receptor (FGFR1)
Experiment: co-immunoprecipitation from lysates of co-transfected 293T cells: IP with anti-MYC tag antibody, western blot with anti-FGF receptor antibody

B1: MYC tagged SEF-FL (full length human SEF in PCDNA4 VERSION A expression plasmid) (receptor, not shown: small tags and cut ends)
chain: ADTCGWRGVGPASRNSGLYNITFKYDNCTTYLNPVGKHVIADAQNITISQYACHDQVAVTILWSPGALGIEFLKGFRVILEELKSEGRQCQQLILKDPKQLNSSFKRTGMESQPFLNMKFETDYFVKVVPFPSIKNESNYHPFFFRTRACDLLLQPDNLACKPFWKPRNLNISQHGSDMQVSFDHAPHNFGFRFFYLHYKLKHEGPFKRKTCEQEQTTEMTSCLLQNVSPGDYIIELVDDTNTTRKVMHYALKPVHSPWAGPIRAVAITVPLVVISAFATLFTVMCRKKQQENIYSHLDEESSESSTYTAALPRERLRPRPKVFLCYSSKDGQNHMNVVQCFAYFLQDFCGCEVALDLWEDFSLCREGQREWVIQKIHESQFIIVVCSKGMKYFVDKKNYKHKGGGRGSGKGELFLVAVSAIAEKLRQAKQSSSAALSKFIAVYFDYSCEGDVPGILDLSTKYRLMDNLPQLCSHLHSRDHGLQEPGQHTRQGSRRNYFRSKSGRSLYVAICNMHQFIDEEPDWFEKQFVPFHPPPLRYREPVLEKFDSGLVLNDVMCKPGPESDFCLKVEAAVLGATGPADSQHESQHGGLDQDGEARPALDGSAALQPLLHTVKAGSPSDMPRDSGIYDSSVPSSELSLPLMEGLSTDQTETSSLTESVSSSSGLGEEEPPALPSKLLSSGSCKADLGCRSYTDELHAVAPL
binding: binds

Results are given in words; binding and its absence hold for the method and conditions named. Binding seen in cells or lysates may run through a third protein. A result given as binding can be weak or reduced; the word gives no strength. Where a sequence is shown, tags or fusion partners need not be part of it.
